Results on 1 substance are retold here after publication PMC2920845.

The chains behind the UniProt entries cited, without tags or fusion partners. Residues count along the entry.
UniProt P9WHT9, residues 58-291: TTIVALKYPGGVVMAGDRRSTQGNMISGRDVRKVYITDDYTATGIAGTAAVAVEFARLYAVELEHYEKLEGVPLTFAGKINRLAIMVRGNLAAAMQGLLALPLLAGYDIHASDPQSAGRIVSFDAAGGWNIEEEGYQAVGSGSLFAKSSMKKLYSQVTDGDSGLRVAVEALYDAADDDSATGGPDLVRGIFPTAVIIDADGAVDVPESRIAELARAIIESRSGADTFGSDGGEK
UniProt P9WHU1: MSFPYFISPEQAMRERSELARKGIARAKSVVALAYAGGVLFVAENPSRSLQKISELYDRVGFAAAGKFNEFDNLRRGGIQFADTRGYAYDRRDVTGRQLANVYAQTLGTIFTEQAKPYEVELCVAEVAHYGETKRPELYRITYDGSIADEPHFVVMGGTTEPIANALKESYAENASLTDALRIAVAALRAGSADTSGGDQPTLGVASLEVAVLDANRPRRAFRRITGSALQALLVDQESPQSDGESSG

The assay addresses PrcBHis6 (wild-type PrcB with a histidine tag) (M. tuberculosis) (UniProt P9WHT9). The assay is described as follows: co-IP.

These are yes or no findings as the source states them, for the method shown. Binding seen in cells or lysates may run through a third protein. Some binding calls cover weakened binding; strength is not graded here.

For “PrcA (proteasome core alpha subunit) (from UniProt P9WHU1 1-248)”, the binding result is on record as “binds”.
